Experimental data taken from PMC8813937.

Protein sequences, listed by entry. Tags and fused reporters are not part of them. Lines headed by an entry give the natural chain unless they say otherwise; changes in a name come on top.
UniProt P49821: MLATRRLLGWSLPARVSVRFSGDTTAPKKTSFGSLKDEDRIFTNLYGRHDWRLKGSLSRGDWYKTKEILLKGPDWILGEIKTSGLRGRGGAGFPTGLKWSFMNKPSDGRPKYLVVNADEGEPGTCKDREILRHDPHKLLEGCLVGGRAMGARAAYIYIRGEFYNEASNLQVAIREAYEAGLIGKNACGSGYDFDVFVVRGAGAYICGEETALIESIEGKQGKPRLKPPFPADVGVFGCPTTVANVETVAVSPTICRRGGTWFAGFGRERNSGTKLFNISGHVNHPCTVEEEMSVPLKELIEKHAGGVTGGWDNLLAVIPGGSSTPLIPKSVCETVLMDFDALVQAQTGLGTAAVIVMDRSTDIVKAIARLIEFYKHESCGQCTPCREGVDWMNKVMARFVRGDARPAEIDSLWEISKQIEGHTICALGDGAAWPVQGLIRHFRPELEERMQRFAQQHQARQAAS

Target: T1, CYTL1, bait of the pull-down coupled with mass spectrometry (UniProt Q9NRR1)
T1 sequence: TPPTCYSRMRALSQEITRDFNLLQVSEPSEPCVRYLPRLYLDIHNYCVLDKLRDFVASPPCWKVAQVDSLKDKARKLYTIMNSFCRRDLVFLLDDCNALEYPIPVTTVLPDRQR
Assay: affinity purification with mass spectrometry; pull-down experiments coupled with mass spectrometry; bait construct and cells not stated

Substance: NDUFV1, hit of the CYTL1 pull-down coupled with mass spectrometry (from UniProt P49821)
- binding: binds

These are yes or no findings as the source states them, for the method shown. Binding seen in cells or lysates may run through a third protein. Here binding means that the protein was enriched with, or labelled near, the bait; the list need not be complete.
